# Cleaved PARP after 72 h of treatment

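The test systems are human melanoma cell lines, treated with two drugs together for 72 h and then stained and imaged. Values are the share of nuclei positive for cleaved PARP as a percentage of the same share in the DMSO control: 100 is the control level, higher means more apoptosis. Concentrations were fixed for each drug; these are the higher of two levels. These are primary screening values without error estimates. Basal and induced levels differ widely between cell lines.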
An unselected part of the screen is shown.
An entry leaves out what has no value listed here.

Drug key:
bortezomib (0.005 µM): CC(C)C[C@H](NC(=O)[C@H](Cc1ccccc1)NC(=O)c1cnccn1)B(O)O
NVP-TAE684 (0.4 µM): COc1cc(N2CCC(N3CCN(C)CC3)CC2)ccc1Nc1ncc(Cl)c(Nc2ccccc2S(=O)(=O)C(C)C)n1
selumetinib (0.075 µM): Cn1cnc2c(F)c(Nc3ccc(Br)cc3Cl)c(C(=O)NOCCO)cc21
STA-4783 (0.03 µM): CN(NC(=O)CC(=O)NN(C)C(=S)c1ccccc1)C(=S)c1ccccc1
GW441756 (2 µM): Cn1cc(/C=C2\C(=O)Nc3cccnc32)c2ccccc21
tozasertib (0.03 µM): Cc1cc(Nc2cc(N3CCN(C)CC3)nc(Sc3ccc(NC(=O)C4CC4)cc3)n2)n[nH]1
tamatinib (2 µM): COc1cc(Nc2ncc(F)c(Nc3ccc4c(n3)NC(=O)C(C)(C)O4)n2)cc(OC)c1OC
crizotinib (1 µM): C[C@@H](Oc1cc(-c2cnn(C3CCNCC3)c2)cnc1N)c1c(Cl)ccc(F)c1Cl
GSK650394 (0.8 µM): O=C(O)c1ccc(-c2c[nH]c3ncc(-c4ccccc4)cc23)cc1C1CCCC1
dorsomorphin (2 µM): c1cc(-c2cnn3cc(-c4ccc(OCCN5CCCCC5)cc4)cnc23)ccn1
ABT-263 (2 µM): CC1(C)CCC(c2ccc(Cl)cc2)=C(CN2CCN(c3ccc(C(=O)NS(=O)(=O)c4ccc(N[C@H](CCN5CCOCC5)CSc5ccccc5)c(S(=O)(=O)C(F)(F)F)c4)cc3)CC2)C1
pazopanib (2 µM): Cc1ccc(Nc2nccc(N(C)c3ccc4c(C)n(C)nc4c3)n2)cc1S(N)(=O)=O

Combination: selumetinib and GSK650394
A2058: 180
UACC-257: 32.9
SK-MEL-5: 197
IST-MEL1: 72.1

Combination: GW441756 and NVP-TAE684
A375: 204
A2058: 102
UACC-257: 55.4
SK-MEL-5: 200
IST-MEL1: 309

Combination: GSK650394 and crizotinib
A2058: 136
UACC-257: 102
SK-MEL-5: 259
IST-MEL1: 227

Combination: pazopanib and tozasertib
A375: 60.0
A2058: 139
UACC-257: 30.6
SK-MEL-5: 91.0
IST-MEL1: 149

Combination: STA-4783 and pazopanib
A2058: 1690
UACC-257: 148
SK-MEL-5: 197
IST-MEL1: 226

Combination: STA-4783 and tamatinib
A2058: 1930
UACC-257: 30.3
SK-MEL-5: 3080
IST-MEL1: 438

Combination: dorsomorphin and STA-4783
A375: 155
A2058: 3240
UACC-257: 15.9
SK-MEL-5: 128
IST-MEL1: 242

Combination: tamatinib and pazopanib
A2058: 229
UACC-257: 132
SK-MEL-5: 454
IST-MEL1: 26.3

Combination: selumetinib and NVP-TAE684
A375: 426
A2058: 114
UACC-257: 31.9
SK-MEL-5: 139
IST-MEL1: 118

Combination: tozasertib and GW441756
A375: 88.1
A2058: 181
UACC-257: 29.3
SK-MEL-5: 70.6
IST-MEL1: 183

Combination: selumetinib and bortezomib
A375: 352
A2058: 2480
UACC-257: 94.3
SK-MEL-5: 3080
IST-MEL1: 332

Combination: NVP-TAE684 and bortezomib
A375: 227
A2058: 1230
UACC-257: 31.0
SK-MEL-5: 360
IST-MEL1: 565

Combination: STA-4783 and selumetinib
A2058: 3370
UACC-257: 319
SK-MEL-5: 146
IST-MEL1: 120

Combination: bortezomib and tozasertib
A375: 115
A2058: 3820
UACC-257: 71.7
SK-MEL-5: 2330
IST-MEL1: 858

Combination: GSK650394 and tamatinib
A2058: 104
UACC-257: 89.5
SK-MEL-5: 82.7
IST-MEL1: 213

Combination: dorsomorphin and pazopanib
A375: 182
A2058: 99.7
UACC-257: 73.9
SK-MEL-5: 67.3
IST-MEL1: 83.3

Combination: ABT-263 and tozasertib
A375: 301
A2058: 250
UACC-257: 1380
SK-MEL-5: 305
IST-MEL1: 121

Combination: pazopanib and NVP-TAE684
A375: 202
A2058: 150
UACC-257: 70.8
SK-MEL-5: 94.6
IST-MEL1: 114

Combination: STA-4783 and NVP-TAE684
A375: 269
A2058: 2930
UACC-257: 41.1
SK-MEL-5: 332
IST-MEL1: 149

Combination: ABT-263 and pazopanib
A375: 556
A2058: 149
UACC-257: 1560
SK-MEL-5: 258
IST-MEL1: 198

Combination: STA-4783 and crizotinib
A2058: 1200
UACC-257: 155
SK-MEL-5: 222
IST-MEL1: 82.2

Combination: dorsomorphin and GW441756
A375: 135
A2058: 254
UACC-257: 54.9
SK-MEL-5: 73.4
IST-MEL1: 131

Combination: dorsomorphin and tozasertib
A375: 57.3
A2058: 364
UACC-257: 50.7
SK-MEL-5: 96.0
IST-MEL1: 61.8

Combination: selumetinib and crizotinib
A375: 243
A2058: 190
UACC-257: 76.4
SK-MEL-5: 236
IST-MEL1: 235

Combination: STA-4783 and GSK650394
A2058: 2960
UACC-257: 197
SK-MEL-5: 548
IST-MEL1: 1070

Combination: GW441756 and pazopanib
A375: 35.6
A2058: 70.1
UACC-257: 36.0
SK-MEL-5: 73.8
IST-MEL1: 92.0

Combination: bortezomib and crizotinib
A375: 105
A2058: 1700
UACC-257: 51.5
SK-MEL-5: 3790
IST-MEL1: 558

Combination: GW441756 and tamatinib
A375: 109
A2058: 161
UACC-257: 50.1
SK-MEL-5: 68.5
IST-MEL1: 74.4

Combination: STA-4783 and tozasertib
A2058: 2270
UACC-257: 118
SK-MEL-5: 125
IST-MEL1: 232

Combination: NVP-TAE684 and GSK650394
A375: 15.1
A2058: 252
UACC-257: 20.9
SK-MEL-5: 243
IST-MEL1: 450

Combination: crizotinib and NVP-TAE684
A375: 104
A2058: 158
UACC-257: 49.8
SK-MEL-5: 268
IST-MEL1: 115

Combination: tamatinib and NVP-TAE684
A375: 116
A2058: 586
UACC-257: 16.6
SK-MEL-5: 646
IST-MEL1: 506

Combination: crizotinib and pazopanib
A375: 174
A2058: 137
UACC-257: 275
SK-MEL-5: 92.7
IST-MEL1: 99.3

Combination: ABT-263 and bortezomib
A375: 528
A2058: 1860
UACC-257: 836
SK-MEL-5: 1810
IST-MEL1: 1100

Combination: GSK650394 and dorsomorphin
A375: 126
A2058: 275
UACC-257: 81.1
SK-MEL-5: 132
IST-MEL1: 45.7

Once more, the final 3:

Combination,A375,A2058,UACC-257,SK-MEL-5,IST-MEL1
crizotinib and pazopanib,174,137,275,92.7,99.3
ABT-263 and bortezomib,528,1860,836,1810,1100
GSK650394 and dorsomorphin,126,275,81.1,132,45.7

From a melanoma drug combination screen (doi:10.1371/journal.pone.0140310); values rounded.